# Source: US7700636B2, “Thiadiazole compounds and methods of use” (Amgen Inc., priority 2004, dated 2010)
# Amino acid sequences for entries named in this document (tags omitted). Residues count along the entry.
# UniProt P31749, 118-480 limits assumed: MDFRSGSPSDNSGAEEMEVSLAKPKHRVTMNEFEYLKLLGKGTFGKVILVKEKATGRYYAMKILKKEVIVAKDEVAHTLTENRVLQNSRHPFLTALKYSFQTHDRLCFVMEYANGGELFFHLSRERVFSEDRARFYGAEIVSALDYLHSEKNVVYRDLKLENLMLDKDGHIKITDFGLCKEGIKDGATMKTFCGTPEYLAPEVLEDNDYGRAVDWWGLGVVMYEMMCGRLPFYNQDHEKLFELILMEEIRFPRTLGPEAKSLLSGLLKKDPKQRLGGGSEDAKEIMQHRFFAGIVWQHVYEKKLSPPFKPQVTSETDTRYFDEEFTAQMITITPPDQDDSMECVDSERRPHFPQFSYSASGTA
# pIC50: −log10 of the molar value. Some results were stated once for a whole list of compounds, not compound by compound.
# Tests used:
# PKB = PKB activity in cells: phosphorylation of PKB substrates FKHRL1, GSK3a/b and Tuberin by immunoassay in MDA-MB-468; assay type: cell-based; conditions: PTEN null human breast tumor cell line MDA-MB-468; phospho-FKHRL1, GSK3a/b, Tuberin; read-out: PKB kinase activity IC50 in cells
# PKBα = target: T1, PKBα (Homo sapiens, UniProt P31749); assay: PKB kinase assay (P33-labeled ATP, peptide substrate, filter plate); assay type: biochemical; conditions: full length PKBα and PKBα kinase domain with pleckstrin domain (amino acids 1-117) deleted
# T1 construct: fused on or other part: Probably a His tag on the vendor's proteins
Structure (SMILES),pIC50 (PKB),pIC50 (PKBα)
"CN[C@H](CNc1nnc(-c2ccc3[nH]nc(C)c3c2)s1)Cc1ccc(C(F)(F)F)cc1 [Example 130, 5-(3-methyl-1H-indazol-5-yl)-N-((S)-2-(methylamino)-3-(4-(trifluoromethyl)phenyl)propyl)-1,3,4-thiadiazol-2-amine]",> 5.00,> 5.00
"Cc1n[nH]c2ccc(-c3nnc(NCC(O)COc4ccccc4)s3)cc12 (centres unmarked) [Example 21, (2-Hydroxy-3-phenoxy-propyl)-[5-(3-methyl-1H-indazol-5-yl)-[1,3,4]thiadiazol-2-yl]-ammonium trifluoro-acetate]",> 5.00,> 5.00
"Cc1n[nH]c2ccc(-c3nnc(NC[C@@H](N)Cc4cccc(Br)c4)s3)cc12 [Example 53, N-((S)-2-amino-3-(3-bromophenyl)propyl)-5-(3-methyl-1H-indazol-5-yl)-1,3,4-thiadiazol-2-amine]",> 5.00,> 5.00
"Cc1n[nH]c2ccc(-c3nnc(NC[C@@H]4C[C@@H](c5ccccc5)CN4)s3)cc12 [Example 48, 5-(3-methyl-1H-indazol-5-yl)-N-(((2S,4S)-4-phenylpyrrolidin-2-yl)methyl)-1,3,4-thiadiazol-2-amine]",> 5.00,> 5.00
"N[C@H](CNc1nnc(-c2ccc3[nH]nc(C4CC4)c3c2)s1)Cc1ccccc1 [Example 118, N-((S)-2-amino-3-phenylpropyl)-5-(3-cyclopropyl-1H-indazol-5-yl)-1,3,4-thiadiazol-2-amine]",> 5.00,> 5.00
"N[C@H](CNc1nnc(-c2ccc3[nH]ncc3c2)s1)Cc1ccc(Br)cc1 [Example 85, N-((S)-2-amino-3-(4-bromophenyl)propyl)-5-(1H-indazol-5-yl)-1,3,4-thiadiazol-2-amine]",> 5.00,> 5.00
"COc1cccc(C[C@H](N)CNc2nnc(-c3ccc4[nH]nc(C)c4c3)s2)c1 [Example 47, (S)-3-(3-Methoxy-phenyl)-N^1-[5-(3-methyl-1H-indazol-5-yl)-[1,3,4]thiadiazol-2-yl]-propane-1,2-diamine]",> 5.00,> 5.00
"Cc1cc(-c2nnc(N)s2)cc2cn[nH]c12 [Example 102, 5-(7-methyl-1H-indazol-5-yl)-1,3,4-thiadiazol-2-amine]",> 5.00,> 5.00
"Cc1n[nH]c2ccc(-c3nnc(NC[C@@H](N)Cc4ccccc4F)s3)cc12 [Example 34, (S)-3-(2-Fluoro-phenyl)-N-[5-(3-methyl-1H-indazol-5-yl)-[1,3,4]thiadiazol-2-yl]-propane-1,2-diamine]",> 5.00,> 5.00
"C[C@H](c1ccc(C(F)(F)F)cc1)[C@H](N)CNc1nnc(-c2ccc3[nH]ncc3c2)s1 [Example 178, N-((2S,3R)-2-amino-3-(4-(trifluoromethyl)phenyl)butyl)-5-(1H-indazol-5-yl)-1,3,4-thiadiazol-2-amine]",> 5.00,> 5.00
"N[C@H](CNc1nnc(-c2ccc3[nH]ncc3c2)s1)Cc1cccc2ccccc12 [Example 72, N-((S)-2-amino-3-(naphthalen-1-yl)propyl)-5-(1H-indazol-5-yl)-1,3,4-thiadiazol-2-amine]",> 5.00,> 5.00
"Cc1cccc(C[C@H](N)CNc2nnc(-c3ccc4[nH]nc(C)c4c3)s2)c1 [Example 43, (S)-N-[5-(3-Methyl-1H-indazol-5-yl)-[1,3,4]thiadiazol-2-yl]-3-m-tolyl-propane-1,2-diamine]",> 5.00,> 5.00
"N[C@H](CNc1nnc(-c2ccc3[nH]ncc3c2)s1)Cc1c[nH]c2cc(O)ccc12 [Example 161, 3-((S)-3-(5-(1H-indazol-5-yl)-1,3,4-thiadiazol-2-ylamino)-2-aminopropyl)-1H-indol-6-ol]",> 5.00,> 5.00
"Cc1n[nH]c2ccc(-c3nnc(NC[C@@H](N)Cc4ccccc4-c4ncccn4)s3)cc12 [Example 28, (S)-1-{[5-(3-Methyl-1H-indazol-5-yl)-[1,3,4]thiadiazol-2-ylamino]-methyl}-2-(2-pyrimidin-2-yl-phenyl)-ethyl-ammonium trifluoro-acetate]",> 5.00,> 5.00
"Cc1cccc(C[C@H](N)CNc2nnc(-c3ccc4cnccc4c3)s2)c1 [Example 152, N-((S)-2-amino-3-m-tolylpropyl)-5-(isoquinolin-6-yl)-1,3,4-thiadiazol-2-amine]",> 5.00,> 5.00
"Cc1n[nH]c2ccc(-c3nnc(NC[C@@H](N)Cc4cccc(Cl)c4)s3)cc12 [Example 56, N-((S)-2-amino-3-(3-chlorophenyl)propyl)-5-(3-methyl-1H-indazol-5-yl)-1,3,4-thiadiazol-2-amine]",> 5.00,> 5.00
"CN[C@H](CNc1nnc(-c2ccc3[nH]ncc3c2)s1)Cc1ccc(Cl)cc1Cl [Example 132, N-((S)-3-(2,4-dichlorophenyl)-2-(methylamino)propyl)-5-(1H-indazol-5-yl)-1,3,4-thiadiazol-2-amine]",> 5.00,> 5.00
"Cc1cc2[nH]ncc2cc1-c1nnc(NC[C@@H](N)Cc2cccs2)s1 [Example 98, N-((S)-2-amino-3-(thiophen-2-yl)propyl)-5-(6-methyl-1H-indazol-5-yl)-1,3,4-thiadiazol-2-amine]",> 5.00,> 5.00
"COc1ccc(C[C@H](N)CNc2nnc(-c3cc4cn[nH]c4cc3F)s2)cc1 [Example 93, N-((S)-2-amino-3-(4-methoxyphenyl)propyl)-5-(6-fluoro-1H-indazol-5-yl)-1,3,4-thiadiazol-2-amine]",> 5.00,> 5.00
"N[C@H](CNc1nnc(-c2ccc3cnccc3c2)s1)Cc1cccc(C(F)(F)F)c1 [Example 146, N-((S)-2-amino-3-(3-(trifluoromethyl)phenyl)propyl)-5-(isoquinolin-6-yl)-1,3,4-thiadiazol-2-amine]",> 5.00,> 5.00
"CN[C@H](CNc1nnc(-c2ccc3[nH]nc(C)c3c2)s1)Cc1cccc(C(F)(F)F)c1 [Example 131, 5-(3-methyl-1H-indazol-5-yl)-N-((S)-2-(methylamino)-3-(3-(trifluoromethyl)phenyl)propyl)-1,3,4-thiadiazol-2-amine]",> 5.00,> 5.00
"c1ccc(CO[C@H]2CN[C@H](CNc3nnc(-c4ccc5[nH]ncc5c4)s3)C2)cc1 [Example 163, N-(((2S,4R)-4-(benzyloxy)pyrrolidin-2-yl)methyl)-5-(1H-indazol-5-yl)-1,3,4-thiadiazol-2-amine]",> 5.00,> 5.00
"COc1cccc(C[C@H](N)CNc2nnc(-c3ccc4cnccc4c3)s2)c1 [Example 148, N-((S)-2-amino-3-(3-methoxyphenyl)propyl)-5-(isoquinolin-6-yl)-1,3,4-thiadiazol-2-amine]",> 5.00,> 5.00
"Cc1c(-c2nnc(NC[C@@H](N)Cc3ccc(Cl)cc3Cl)s2)ccc2[nH]ncc12 [Example 116, N-((S)-2-amino-3-(2,4-dichlorophenyl)propyl)-5-(4-methyl-1H-indazol-5-yl)-1,3,4-thiadiazol-2-amine]",> 5.00,> 5.00
"N[C@H](CNc1nnc(-c2ccc3[nH]nc(C4CC4)c3c2)s1)Cc1ccc(Cl)cc1 [Example 119, N-((S)-2-amino-3-(4-chlorophenyl)propyl)-5-(3-cyclopropyl-1H-indazol-5-yl)-1,3,4-thiadiazol-2-amine]",> 5.00,> 5.00
